The other results are listed elsewhere or left out.

The chains behind the UniProt entries cited, without tags or fusion partners. Where a name states a change or a piece, a line headed by the entry shows the natural chain unless it says otherwise.
UniProt Q9BUV0: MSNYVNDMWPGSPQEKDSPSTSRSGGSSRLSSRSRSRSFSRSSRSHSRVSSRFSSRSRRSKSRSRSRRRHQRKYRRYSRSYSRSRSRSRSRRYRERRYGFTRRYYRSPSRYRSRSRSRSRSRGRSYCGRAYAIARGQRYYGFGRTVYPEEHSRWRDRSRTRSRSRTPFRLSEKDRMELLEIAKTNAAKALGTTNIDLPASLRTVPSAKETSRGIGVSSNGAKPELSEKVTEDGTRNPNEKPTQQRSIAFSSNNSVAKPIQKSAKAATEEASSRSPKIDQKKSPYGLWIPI
UniProt Q8N2Y8: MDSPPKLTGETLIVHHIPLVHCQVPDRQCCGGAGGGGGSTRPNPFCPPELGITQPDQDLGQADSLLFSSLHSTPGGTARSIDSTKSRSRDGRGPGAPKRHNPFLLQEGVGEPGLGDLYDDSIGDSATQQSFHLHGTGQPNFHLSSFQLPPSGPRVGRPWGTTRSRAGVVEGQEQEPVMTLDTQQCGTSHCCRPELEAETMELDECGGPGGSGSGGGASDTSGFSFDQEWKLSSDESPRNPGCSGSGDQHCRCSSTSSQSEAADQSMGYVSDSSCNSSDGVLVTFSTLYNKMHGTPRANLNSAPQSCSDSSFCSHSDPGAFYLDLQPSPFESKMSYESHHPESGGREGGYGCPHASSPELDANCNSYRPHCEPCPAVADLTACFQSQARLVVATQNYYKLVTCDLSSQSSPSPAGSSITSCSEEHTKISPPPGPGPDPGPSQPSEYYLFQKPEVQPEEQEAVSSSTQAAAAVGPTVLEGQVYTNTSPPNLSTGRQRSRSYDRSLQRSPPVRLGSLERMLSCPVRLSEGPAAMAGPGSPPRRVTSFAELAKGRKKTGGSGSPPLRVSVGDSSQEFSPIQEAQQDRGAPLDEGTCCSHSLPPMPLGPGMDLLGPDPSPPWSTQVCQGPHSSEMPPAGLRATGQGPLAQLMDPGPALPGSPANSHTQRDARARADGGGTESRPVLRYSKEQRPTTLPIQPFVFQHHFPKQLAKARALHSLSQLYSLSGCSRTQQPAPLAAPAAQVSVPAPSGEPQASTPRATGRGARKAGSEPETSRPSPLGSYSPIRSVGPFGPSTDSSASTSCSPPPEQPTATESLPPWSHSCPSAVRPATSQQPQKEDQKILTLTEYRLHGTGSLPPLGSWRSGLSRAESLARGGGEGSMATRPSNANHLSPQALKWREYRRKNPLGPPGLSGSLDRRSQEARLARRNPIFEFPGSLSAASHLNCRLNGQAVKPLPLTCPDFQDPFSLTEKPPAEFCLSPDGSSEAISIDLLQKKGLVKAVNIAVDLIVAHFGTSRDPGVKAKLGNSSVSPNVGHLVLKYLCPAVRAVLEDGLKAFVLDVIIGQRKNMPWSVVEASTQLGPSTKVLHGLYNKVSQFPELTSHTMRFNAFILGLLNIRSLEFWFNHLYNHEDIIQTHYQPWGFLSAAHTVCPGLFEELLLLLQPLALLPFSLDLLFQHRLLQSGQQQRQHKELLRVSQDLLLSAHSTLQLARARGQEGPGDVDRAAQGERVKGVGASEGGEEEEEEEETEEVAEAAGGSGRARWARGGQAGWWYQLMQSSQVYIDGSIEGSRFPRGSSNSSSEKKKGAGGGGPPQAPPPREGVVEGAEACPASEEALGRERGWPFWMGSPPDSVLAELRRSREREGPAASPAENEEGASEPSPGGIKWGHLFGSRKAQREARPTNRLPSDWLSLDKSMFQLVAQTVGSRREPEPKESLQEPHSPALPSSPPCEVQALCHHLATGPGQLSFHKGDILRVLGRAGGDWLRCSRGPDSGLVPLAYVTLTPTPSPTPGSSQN
UniProt Q9Y2B1: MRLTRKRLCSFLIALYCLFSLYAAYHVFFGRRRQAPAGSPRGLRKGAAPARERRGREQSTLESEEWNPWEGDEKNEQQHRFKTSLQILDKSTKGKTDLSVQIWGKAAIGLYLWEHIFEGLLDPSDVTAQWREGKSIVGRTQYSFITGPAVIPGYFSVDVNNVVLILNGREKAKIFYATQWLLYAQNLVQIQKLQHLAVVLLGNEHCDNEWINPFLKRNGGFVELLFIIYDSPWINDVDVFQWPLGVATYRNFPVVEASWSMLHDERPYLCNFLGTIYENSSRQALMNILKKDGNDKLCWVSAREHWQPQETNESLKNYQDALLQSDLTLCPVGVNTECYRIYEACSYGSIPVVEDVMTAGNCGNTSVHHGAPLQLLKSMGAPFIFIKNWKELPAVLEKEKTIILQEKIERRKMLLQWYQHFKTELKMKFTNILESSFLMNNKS
UniProt Q96C34: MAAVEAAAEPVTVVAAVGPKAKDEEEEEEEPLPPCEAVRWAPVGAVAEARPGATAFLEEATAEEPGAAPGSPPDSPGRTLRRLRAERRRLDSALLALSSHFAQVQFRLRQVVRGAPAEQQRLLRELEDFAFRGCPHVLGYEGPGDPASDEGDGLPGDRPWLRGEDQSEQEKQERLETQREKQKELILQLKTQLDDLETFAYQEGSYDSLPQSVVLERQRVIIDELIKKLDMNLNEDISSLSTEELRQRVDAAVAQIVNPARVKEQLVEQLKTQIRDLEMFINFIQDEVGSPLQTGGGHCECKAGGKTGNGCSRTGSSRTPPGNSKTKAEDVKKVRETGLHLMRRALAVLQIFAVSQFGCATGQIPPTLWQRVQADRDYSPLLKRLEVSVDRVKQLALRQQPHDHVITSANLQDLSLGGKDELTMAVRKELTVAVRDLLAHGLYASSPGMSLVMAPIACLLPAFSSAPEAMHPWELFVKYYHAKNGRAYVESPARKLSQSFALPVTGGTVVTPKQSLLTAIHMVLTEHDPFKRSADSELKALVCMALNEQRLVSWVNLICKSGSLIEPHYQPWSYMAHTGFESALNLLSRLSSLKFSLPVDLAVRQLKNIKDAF
UniProt Q9UIY3: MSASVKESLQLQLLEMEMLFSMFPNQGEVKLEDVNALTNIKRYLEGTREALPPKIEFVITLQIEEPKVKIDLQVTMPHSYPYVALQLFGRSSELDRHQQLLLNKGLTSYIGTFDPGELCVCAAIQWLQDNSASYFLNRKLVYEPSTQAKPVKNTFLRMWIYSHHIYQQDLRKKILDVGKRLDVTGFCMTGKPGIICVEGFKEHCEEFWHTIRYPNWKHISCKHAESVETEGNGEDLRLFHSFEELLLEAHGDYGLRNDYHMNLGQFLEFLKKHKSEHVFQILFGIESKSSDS
UniProt Q9BZR6: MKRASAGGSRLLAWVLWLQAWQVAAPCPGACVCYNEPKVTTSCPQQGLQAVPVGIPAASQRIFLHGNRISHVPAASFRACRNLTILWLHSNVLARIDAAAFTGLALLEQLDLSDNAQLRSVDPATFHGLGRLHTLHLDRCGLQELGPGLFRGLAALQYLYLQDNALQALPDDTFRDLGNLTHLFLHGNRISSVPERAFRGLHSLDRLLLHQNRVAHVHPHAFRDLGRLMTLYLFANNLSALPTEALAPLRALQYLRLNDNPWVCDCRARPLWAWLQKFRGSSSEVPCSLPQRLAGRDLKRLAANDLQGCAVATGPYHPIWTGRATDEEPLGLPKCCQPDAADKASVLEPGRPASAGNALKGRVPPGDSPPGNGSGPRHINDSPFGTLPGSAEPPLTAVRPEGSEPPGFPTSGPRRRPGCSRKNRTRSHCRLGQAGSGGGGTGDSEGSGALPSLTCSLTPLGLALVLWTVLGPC
UniProt P23297: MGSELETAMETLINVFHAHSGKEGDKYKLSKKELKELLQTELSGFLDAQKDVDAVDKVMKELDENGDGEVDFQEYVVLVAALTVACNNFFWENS
UniProt Q86SG5: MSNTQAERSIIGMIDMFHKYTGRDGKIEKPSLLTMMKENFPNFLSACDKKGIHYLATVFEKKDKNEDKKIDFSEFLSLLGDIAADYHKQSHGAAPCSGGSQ

log2 fold change data for 13 targets are collected here from the supplement of paper PMC10849652.

What all share (assay): log2 fold change, soluble protein after heating vs DMSO (PISA); higher = thermal stabilisation; K562 lysate, 10 uM; active = over 0.2 and 3.5 SD of the protein, either way, in both replicates (recomputed)
Compound in assay [1]: CS(=O)(=O)CCNCc1ccc(-c2ccc3ncnc(Nc4ccc(OCc5cccc(F)c5)c(Cl)c4)c3c2)o1 [lapatinib]
The method in brief: (§1)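 Soluble protein was defined as the supernatant remaining after 21,000xg for 90 min, following pooling of heated aliquots and adjustment to 0.5% NP-40 at 4°C. Before that, crude K562 extract at 1 mg/mL protein in PBS pH 7.4 with 1 mM MgCl2 was treated with 10 μM compound for 30 min and heated for 3 min across 48°C-58°C. Quantification used TMTpro 16plex LC-MS/MS with channel sums equalised, and values are log-two fold changes in thermal stability relative to solvent controls from duplicates.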

Compound in assay [2]: C[C@@H](Oc1cc(-c2cnn(C3CCNCC3)c2)cnc1N)c1c(Cl)ccc(F)c1Cl [crizotinib]
Put shortly: as §1

Compound in assay [3]: C[C@H](C1=CC=C(C=C1)C(=O)NC2=C3C=CNC3=NC=C2)N
The method in brief: as §1

Compound in assay [4]: C[C@H](Nc1ncnc2nc[nH]c12)c1cc2cccc(Cl)c2c(=O)n1-c1ccccc1 [duvelisib]
The method in brief:
as §1

Compound in assay [5]: Cc1cc(Nc2cc(CN3CCOCC3)c3nc(C)c(Cc4ccc(Cl)cc4F)n3n2)n[nH]1 [gandotinib]
The method in brief: as §1

Compound in assay [6]: Cc1cc(Nc2cc(N3CCN(C)CC3)nc(Sc3ccc(NC(=O)C4CC4)cc3)n2)n[nH]1 [tozasertib]
The method in brief: as §1

Compound in assay [7]: Cc1ccc(-n2nc(C(C)(C)C)cc2NC(=O)Nc2ccc(OCCN3CCOCC3)c3ccccc23)cc1 [doramapimod]
The method in brief:
as §1

Compound in assay [8]: Cc1cccc(CC(=O)N2CCc3c2ccc(-c2cn(C)c4ncnc(N)c24)c3F)n1
The method in brief:
as §1

Compound in assay [9]: Cc1cn(-c2cc(NC(=O)c3ccc(C)c(Nc4nccc(-c5cccnc5)n4)c3)cc(C(F)(F)F)c2)cn1 [nilotinib]
The method in brief: as §1

Compound in assay [10]: Cc1nc(Nc2n[nH]c3c2CN(C(=O)N[C@H](CN(C)C)c2ccccc2)C3(C)C)c2sccc2n1
Put shortly:
as §1

Compound in assay [11]: Cc1nc(Nc2ncc(C(=O)Nc3c(C)cccc3Cl)s2)cc(N2CCN(CCO)CC2)n1 [dasatinib]
Put shortly:
as §1

Compound in assay [12]: Cc1ncc(-c2ccnc(Nc3ccc(S(C)(=O)=O)cc3)n2)n1C(C)C
Put shortly:
as §1

Compound in assay [13]: Cn1cc(-c2ccc3c(c2)CCN3C(=O)Cc2cccc(C(F)(F)F)c2)c2c(N)ncnc21
The method in brief: as §1

Compound in assay [14]: Cn1cc(CNCC2CCN(c3ncc(C(=O)NO)cn3)CC2)c2ccccc21 [quisinostat]
The method in brief:
as §1

Compound in assay [15]: Cn1cncc1[C@@](N)(c1ccc(Cl)cc1)c1ccc2c(c1)c(-c1cccc(Cl)c1)cc(=O)n2C [tipifarnib]
The method in brief: as §1

Compound in assay [16]: NC(=O)Nc1cc(-c2cccc(F)c2)sc1C(=O)N[C@H]1CCCNC1
Put shortly: as §1

Compound in assay [17]: NC(=O)c1cnc(N[C@@H]2CCCC[C@@H]2N)nc1Nc1cccc(-n2nccn2)c1
Put shortly: as §1

Compound in assay [18]: NC1(c2ccc(-c3nc4ccn5c(=O)[nH]nc5c4cc3-c3ccccc3)cc2)CCC1
The method in brief:
as §1

Compound in assay [19]: CS(=O)(=O)N1CCN(Cc2cc3nc(-c4cccc5[nH]ncc45)nc(N4CCOCC4)c3s2)CC1 [pictilisib]
Put shortly: as §1

Compound in assay [20]: Cc1ccc(NC(=O)c2ccc(CN3CC[C@H](N(C)C)C3)c(C(F)(F)F)c2)cc1Nc1nccc(-c2cncnc2)n1 [bafetinib]
Put shortly:
as §1

As to RSL24D1 (UniProt Q9UHA3), the log2 fold change in [1] was inactive: -0.059; in assay [2], inactive: 0.168; in assay [3], inactive: 0.132; in assay [4], inactive: 0.009; in assay [5] it was inactive: -0.028; in assay [6], inactive: -0.027. Besides, the log2 fold change is inactive: -0.098 in assay [7]; inactive: 0.023 in [8]; inactive: -0.038 in [9]; inactive: 0.012 in [10]; inactive: 0.097 in assay [11]; inactive: -0.094 in [12]. The log2 fold change in [13] is inactive: -0.089; in assay [14], inactive: 0.096; in assay [15], inactive: 0.071; in assay [16], inactive: 0.032; in assay [17], inactive: -0.006; in assay [18] it was inactive: -0.08.

As to RSRP1 (UniProt Q9BUV0), the log2 fold change in assay [4] was inactive: -0.07; in assay [11] it was inactive: 0.047; in [13], inactive: 0.102.

Turning to RUSC2 (UniProt Q8N2Y8), the log2 fold change was inactive: -0.026 in [19]; inactive: 0.194 in assay [3]; inactive: 0.04 in assay [4]; inactive: -0.11 in [5]; inactive: -0.064 in [20]; inactive: -0.042 in [8]. Further, the log2 fold change in [9] was inactive: -0.131; in assay [10] it was inactive: -0.076; in assay [11], inactive: -0.063; in assay [12] it was inactive: 0.161; in [13] it was inactive: 0.055; in assay [15], inactive: 0.041. In addition, the log2 fold change in assay [18] was inactive: -0.019.

Take RXYLT1 (UniProt Q9Y2B1): the log2 fold change in [1] is inactive: -0.028; in assay [4] it was inactive: -0.146; in [9], inactive: 0.126; in assay [10], inactive: 0.03; in assay [11], inactive: -0.128; in assay [12], inactive: 0.031. In addition, the log2 fold change is inactive: 0.039 in assay [13], inactive: -0.167 in assay [15], inactive: 0.18 in [17] and inactive: -0.116 in [18].

As for RUNDC1 (UniProt Q96C34), the log2 fold change in assay [19] is inactive: -0.469; in assay [2], inactive: -0.044; in assay [3], inactive: -0.061; in assay [4], inactive: -0.008; in assay [5], inactive: -0.011; in assay [7] it was inactive: 0.043. The log2 fold change in [20] was inactive: 0.264; in assay [8], inactive: 0.211; in [11] it was inactive: -0.022; in assay [13], inactive: -0.068; in assay [14] it was inactive: -0.049; in [16], inactive: 0.029. Further, in assay [18], the log2 fold change was inactive: -0.014.

For the target RWDD2A (UniProt Q9UIY3), the log2 fold change in assay [19] was inactive: 0.134; in assay [2], inactive: -0.029; in assay [3], inactive: -0.09; in assay [4] it was inactive: -0.004; in assay [5] it was inactive: -0.078; in [6], inactive: -0.029. The log2 fold change in assay [7] was inactive: 0.027; in assay [20] it was inactive: -0.034; in assay [8] it was inactive: 0.017; in assay [11], inactive: -0.038; in assay [13], inactive: 0.071; in assay [14] it was inactive: 0.009. Besides, the log2 fold change in assay [16] is inactive: 0.017; in assay [18], inactive: 0.093.

Turning to RPP30 (UniProt Q5VU11), the log2 fold change in assay [6] is inactive: 0.147.

For the target RPS15, A0A0B4J2B4, the log2 fold change in assay [1] is inactive: -0.06; in [9], inactive: -0.228; in assay [10], inactive: 0.078; in assay [12], inactive: 0.098; in assay [15], inactive: 0.124; in assay [17], inactive: -0.187.

For RPSA (UniProt F8WD59), the log2 fold change in assay [3] is inactive: -0.241; in assay [4], inactive: -0.11; in assay [5], inactive: 0.201; in assay [8] it was inactive: -0.057; in assay [9], inactive: -0.109; in [10], inactive: 0.011. In addition, the log2 fold change was inactive: 0.029 in assay [11], inactive: -0.032 in assay [12], inactive: 0.167 in assay [13] and inactive: 0.142 in [15].

On to RTN4R (UniProt Q9BZR6), for which the log2 fold change in [18] was inactive: 0.105.

As for S100A1 (UniProt P23297), the log2 fold change in assay [1] is inactive: -0.022; in [2], inactive: -0.027; in [3] it was inactive: 0.002; in assay [4], inactive: -0.196; in [5] it was inactive: -0.017; in assay [6] it was inactive: 0.038. The log2 fold change was inactive: 0.174 in assay [7]; inactive: 0.013 in [8]; inactive: 0.129 in assay [9]; inactive: -0.068 in assay [10]; inactive: 0.001 in [11]; inactive: 0.001 in assay [12]. For the same target, the log2 fold change in assay [13] was inactive: 0.048; in assay [14], inactive: 0.019; in [15] it was inactive: -0.006; in [16] it was inactive: 0.109; in assay [17] it was inactive: -0.01; in assay [18], inactive: -0.045.

For S100A6 (UniProt P06703), the log2 fold change in [1] was inactive: 0.069; in assay [2], inactive: 0.119; in [3] it was inactive: 0.088; in assay [4] it was inactive: 0; in assay [5], inactive: 0.207; in assay [6] it was inactive: -0.038. Also, the log2 fold change in assay [7] was inactive: -0.017; in [8], inactive: -0.119; in assay [11], active: 0.774; in assay [13] it was inactive: -0.063; in assay [14], inactive: 0.001; in [16], inactive: -0.078. For the same target, the log2 fold change was inactive: -0.063 in assay [17] and inactive: 0.026 in assay [18].

As to S100A7A (UniProt Q86SG5), the log2 fold change was inactive: -0.034 in assay [2]; inactive: 0.02 in assay [7]; inactive: 0.322 in [14]; inactive: -0.538 in assay [16]; inactive: 0.13 in assay [18].
